Data reported in article doi:10.1101/438713.

Columns and labels:
Assay in all cases: FRET or BRET
[1] = target: eGFP-PvdD (Pseudomonas aeruginosa PAO1) (UniProt Q9I182)
[2] = target: eGFP-PvdL (Pseudomonas aeruginosa PAO1)
[3] = target: PvdJ-eGFP (Pseudomonas aeruginosa PAO1)
[4] = target: PvdI-eGFP (Pseudomonas aeruginosa PAO1)
[5] = target: mCherry-PvdD (Pseudomonas aeruginosa PAO1)
[6] = target: PvdJ-mCherry (Pseudomonas aeruginosa PAO1)

Measured: binding

B1: PvdA-mCherry (enzyme, UniProt Q51548 1-443)
chain: MTQATATAVVHDLIGVGFGPSNIALAIALQERAQAQGALEVLFLDKQGDYRWHGNTLVSQSELQISFLKDLVSLRNPTSPYSFVNYLHKHDRLVDFINLGTFYPCRMEFNDYLRWVASHFQEQSRYGEEVLRIEPMLSAGQVEALRVISRNADGEELVRTTRALVVSPGGTPRIPQVFRALKGDGRVFHHSQYLEHMAKQPCSSGKPMKIAIIGGGQSAAEAFIDLNDSYPSVQADMILRASALKPADDSPFVNEVFAPKFTDLIYSREHAERERLLREYHNTNYSVVDTDLIERIYGVFYRQKVSGIPRHAFRCMTTVERATATAQGIELALRDAGSGELSVETYDAVILATGYERQLHRQLLEPLAEYLGDHEIGRDYRLQTDERCKVAIYAQGFSQASHGLSDTLLSVLPVRAEEISGSLYQHLKPGTAARALHEHALAS
binds: [1] | [2] | [3] | [4]

B2: PvdA-eGFP (enzyme, UniProt Q51548 1-443)
chain: MTQATATAVVHDLIGVGFGPSNIALAIALQERAQAQGALEVLFLDKQGDYRWHGNTLVSQSELQISFLKDLVSLRNPTSPYSFVNYLHKHDRLVDFINLGTFYPCRMEFNDYLRWVASHFQEQSRYGEEVLRIEPMLSAGQVEALRVISRNADGEELVRTTRALVVSPGGTPRIPQVFRALKGDGRVFHHSQYLEHMAKQPCSSGKPMKIAIIGGGQSAAEAFIDLNDSYPSVQADMILRASALKPADDSPFVNEVFAPKFTDLIYSREHAERERLLREYHNTNYSVVDTDLIERIYGVFYRQKVSGIPRHAFRCMTTVERATATAQGIELALRDAGSGELSVETYDAVILATGYERQLHRQLLEPLAEYLGDHEIGRDYRLQTDERCKVAIYAQGFSQASHGLSDTLLSVLPVRAEEISGSLYQHLKPGTAARALHEHALAS
binds: [5] | [6]

These are yes or no findings as the source states them, for the method shown. In cells and extracts the contact can be indirect. Binding calls can cover weak binding; strength is not graded here. For part of these data: Tags and fused reporters may be left off the sequences shown.
